{"sequences": {"note": "Chains of the proteins cited; added tags and fusions are not shown.", "UniProt O77059": "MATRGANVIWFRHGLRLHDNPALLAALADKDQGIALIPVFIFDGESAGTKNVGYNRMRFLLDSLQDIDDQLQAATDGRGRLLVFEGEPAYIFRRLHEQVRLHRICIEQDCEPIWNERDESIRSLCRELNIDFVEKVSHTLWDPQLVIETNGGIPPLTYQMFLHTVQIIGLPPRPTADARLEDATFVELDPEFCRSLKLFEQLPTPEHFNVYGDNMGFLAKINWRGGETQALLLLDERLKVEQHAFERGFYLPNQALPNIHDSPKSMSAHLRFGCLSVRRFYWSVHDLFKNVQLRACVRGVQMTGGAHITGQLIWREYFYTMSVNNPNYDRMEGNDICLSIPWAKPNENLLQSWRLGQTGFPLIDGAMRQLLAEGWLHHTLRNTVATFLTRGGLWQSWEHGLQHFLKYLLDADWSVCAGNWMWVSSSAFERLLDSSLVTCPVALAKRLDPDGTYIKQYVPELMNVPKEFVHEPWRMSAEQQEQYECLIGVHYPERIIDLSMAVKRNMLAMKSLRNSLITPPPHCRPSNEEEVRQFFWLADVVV"}, "source": "paper PMC12661795", "molecular_target": "HACRY, a hemagglutinin (HA)-tagged form of Drosophila CRYPTOCHROME (dCRY) (Drosophila melanogaster) (UniProt O77059)", "test": "co-IP; Co-IP from head extracts of tim > HACRY flies, dark (ZT0) and light (ZT0 + 15 min light pulse); blot with anti-SQUID and anti-HA; tim-GAL4 flies as negative control", "note": "Results are given in words; binding and its absence hold for the method and conditions named. Binding seen in cells or lysates may run through a third protein. Some entries that bind do so weakly or less than the wild type."}
{"binder": "RNA-binding protein SQUID (protein, UniProt Q08473 1-344) MAENKQVDTEINGEDFTKDVTADGPGSENGDAGAAGSTNGSSDNQSAASGQRDDDRKLFVGGLSWETTEKELRDHFGKYGEIESINVKTDPQTGRSRGFAFIVFTNTEAIDKVSAADEHIINSKKVDPKKAKARHGKIFVGGLTTEISDEEIKTYFGQFGNIVEVEMPFDKQKSQRKGFCFITFDSEQVVTDLLKTPKQKIAGKEVDVKRATPKPENQMMGGMRGGPRGGMRGGRGGYGGRGGYNNQWDGQGSYGGYGGGYGGYGAGGYGDYYAGGYYNGYDYGYDGYGYGGGFEGNGYGGGGGGNMGGGRGGPRGGGGPKGGGGFNGGKQRGGGGRQQRHQPY", "values": [{"measurement": "binding", "value": "binds"}]}
